# Laboratory results reported in PubChem BioAssay AID504834 (National Center for Advancing Translational Sciences (NCATS), 2011).
# About 22,000 (6.9%) of roughly 320,000 compounds were called active. This list was built around the results that the source calls inconclusive (neither active nor inactive); the mix of calls is not that of the screen. Calls follow the shape of the dose curve; as a rule, active = well fitted inhibition curve with a large enough effect; inconclusive = small, poorly fitted or top-dose-only effect, or another doubt; inactive = no such curve, though single readings can be large or run the other way. Potencies beside an inconclusive call are fits to weak or partial responses and may not hold up.
# Test: Primary qHTS for delayed death inhibitors of the malarial parasite plastid, 96 hour incubation
# Conditions: P. falciparum luciferase reporter growth; series mostly up to 28.7 µM; activity change, negative = inhibition: at the top concentration
# How it was run: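 Erythrocytes infected with luciferase-expressing P. falciparum were dispensed at 2% hematocrit and 0.05% parasitemia (final), then incubated with compounds 96 hours at 37 C in 5% CO2. Luminescence after detection reagent addition reported growth.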
# % is scaled to controls: 0 for no effect and ±100 for the full control effect; potency is read from the fitted curve at half-maximal effect.
Structure (SMILES),Potency,"activity change, negative = inhibition"
Cn1c2ccc(F)cc2c2nnc(NN)nc21,"inconclusive: 16.5 µM [inhibitor, single point]",
O=c1cc(CO)oc(C(Nc2ccccn2)c2ccc(C(F)(F)F)cc2)c1O (stereo not drawn),,inactive: -12.2%
Cc1nn(S(=O)(=O)c2cccs2)c(C)c1Sc1ccc([N+](=O)[O-])cc1,"inconclusive: 0.165 µM [inhibitor, full curve, poor fit]",
Cc1c(NC(=O)OCCSc2nc(N(C)C)nc(N(C)C)n2)sc(=S)n1C,,inactive: 0.449%
CN(C)CCn1c(C(=O)O)cc2ccccc21,"inconclusive: 18.5 µM [inhibitor, single point]",
COc1cc(OC)cc(C2=NC3(CCC(C)CC3)NC2=S)c1 (stereo not drawn),,inactive: -6.9%
Cc1ccc(NC2CC(=O)N(c3ccc(N4CCCCC4)cc3)C2=O)cc1 (stereo not drawn),active: 1.65 µM,
Nc1nnnn1/N=C/c1cc(Cl)cc(Cl)c1O,"inconclusive: 5.22 µM [inhibitor, partial curve]",
Cc1c(CC(=O)N2CCN(C(=O)C3COc4ccccc4O3)CC2)c(=O)oc2cc(O)c(Cl)cc12 (stereo not drawn),"inconclusive: 6.57 µM [inhibitor, partial curve]",
CSc1nc2ccc(NC(=O)c3cc4ccccc4o3)cc2s1,,inactive: -53.3%
CC(C)(C)c1ccc(C(=O)NCCOc2ccccc2)cc1,active: 9.28 µM,
COc1ccccc1NS(=O)(=O)c1c(C)nc2sccn2c1=O,"inconclusive: 18.5 µM [inhibitor, single point]",
CCOc1ccc(NC(=S)N(CCc2c(C)[nH]c3ccc(C)cc23)Cc2ccncc2)cc1,"inconclusive: 10.4 µM [inhibitor, single point]",
Cc1ccccc1OCc1nnc(SC(C)C(=O)O)n1Cc1ccccc1 (stereo not drawn),,inactive: -4.76%
Cc1ccc(Cn2c(SCCN3CCCCC3)nc3c2c(=O)[nH]c(=O)n3C)cc1,active: 3.7 µM,
O=[N+]([O-])c1ccc(NCc2ccccn2)nc1,,inactive: 38.8%
Cc1cccc2cc3c(N)c(C(=O)Nc4ccc(N5CCOCC5)cc4)sc3nc12,"inconclusive: 0.131 µM [inhibitor, full curve, poor fit]",
COc1ccc(CNC(=O)c2ccc(S(=O)(=O)N3CCOCC3)cc2)cc1,"inconclusive: 16.5 µM [inhibitor, partial curve]",
Cc1ccc(C)n1NC(=O)c1cccs1,"inconclusive: 4.15 µM [inhibitor, single point]",
CCC(CC)c1nnc(NC(=O)c2c(C)nn(Cc3ccccc3Cl)c2C)s1,"inconclusive: 18.5 µM [inhibitor, partial curve, poor fit]",
COc1ccc(C(=O)NNC(=O)c2ccncc2)cc1,,inactive: -22.2%
COc1ccc(C(NC(=O)N2CC(C)OC(C)C2)C(Cl)(Cl)Cl)cc1F (stereo not drawn),active: 3.29 µM,
Cc1cc(C)cc(N2CC(O)=C(c3nc4ccccc4c(=O)[nH]3)C2=N)c1,,inactive: 2.42%
Cc1cc(OC(C)C(=O)NCCCn2ccnc2)c2c(C)c(C)c(=O)oc2c1 (stereo not drawn),"inconclusive: 18.5 µM [inhibitor, single point]",
Cc1cc(C)nc(SCC(=O)Nc2ccc(Br)cn2)n1,,inactive: -34.4%

# By substructure, the compounds so far containing a halogen
Structure (SMILES),Potency,"activity change, negative = inhibition"
Cn1c2ccc(F)cc2c2nnc(NN)nc21,"inconclusive: 16.5 µM [inhibitor, single point]",
O=c1cc(CO)oc(C(Nc2ccccn2)c2ccc(C(F)(F)F)cc2)c1O (stereo not drawn),,inactive: -12.2%
Nc1nnnn1/N=C/c1cc(Cl)cc(Cl)c1O,"inconclusive: 5.22 µM [inhibitor, partial curve]",
Cc1c(CC(=O)N2CCN(C(=O)C3COc4ccccc4O3)CC2)c(=O)oc2cc(O)c(Cl)cc12 (stereo not drawn),"inconclusive: 6.57 µM [inhibitor, partial curve]",
CCC(CC)c1nnc(NC(=O)c2c(C)nn(Cc3ccccc3Cl)c2C)s1,"inconclusive: 18.5 µM [inhibitor, partial curve, poor fit]",
COc1ccc(C(NC(=O)N2CC(C)OC(C)C2)C(Cl)(Cl)Cl)cc1F (stereo not drawn),active: 3.29 µM,
Cc1cc(C)nc(SCC(=O)Nc2ccc(Br)cn2)n1,,inactive: -34.4%

# Sorted by number of heavy atoms (high to low): 3 of the compounds above
Structure (SMILES),Potency,"activity change, negative = inhibition"
O=c1cc(CO)oc(C(Nc2ccccn2)c2ccc(C(F)(F)F)cc2)c1O (stereo not drawn),,inactive: -12.2%
COc1ccccc1NS(=O)(=O)c1c(C)nc2sccn2c1=O,"inconclusive: 18.5 µM [inhibitor, single point]",
Cn1c2ccc(F)cc2c2nnc(NN)nc21,"inconclusive: 16.5 µM [inhibitor, single point]",

# (listing goes on)

Structure (SMILES),Potency,"activity change, negative = inhibition"
Cc1nc2ccc(C(=O)N/N=C/c3ccccc3O)cc2[nH]1,"inconclusive: 2.94 µM [inhibitor, full curve, poor fit]",
O=C(COC(=O)c1ccccn1)NCc1cccs1,,inactive: 24.3%
COc1cc(O)sc1C=Nc1ccc(Cl)cc1,"inconclusive: 8.28 µM [inhibitor, partial curve]",
Cc1ccc(/C=N/NC(=O)Cn2cnc3ccccc32)o1,"inconclusive: 18.5 µM [inhibitor, single point]",
CCOc1ccc(S(=O)(=O)N(C)c2ccc(OCC(=O)N3CCOCC3)cc2)cc1,"inconclusive: 10.4 µM [inhibitor, single point]",
C=CCNC(=O)C(C)N1c2cccc3cccc(c23)S1(=O)=O (stereo not drawn),,inactive: 52.7%
CN1C(=O)/C(=C/c2ccc(OCc3cccc(F)c3)cc2)NC1=S,"inconclusive: 3.29 µM [inhibitor, single point]",
O=c1onc(-c2cccs2)n1Cc1ccccc1,"inconclusive: 0.131 µM [inhibitor, full curve, poor fit]",
CSc1nc(SC)c2c3c(oc2n1)COC(C)(C)C3,"inconclusive: 16.5 µM [inhibitor, single point]",
Cc1ccc(CC(=O)N(C)CC(=O)Nc2ccc(N3CCOCC3)cc2)cc1C,,inactive: 8.28%
Cc1ccc(NC(=O)CN(C)C(=O)COC(=O)c2nc3nccc(C)n3n2)cc1,,inactive: -7.72%
CCOC(=O)CSc1nc2c(c(=O)n(C)c(=O)n2C)n1Cc1ccccc1F,,inactive: 74%
CCc1ccc(OCC(=O)NC(=S)Nc2ccc(C(=O)O)cc2)cc1,,inactive: 1.68%
COc1cccc(Sc2ccccc2/C=N/NC(N)=O)c1,"inconclusive: 18.5 µM [inhibitor, single point]",
CC(C)(C)C(=O)Nc1nnc(-c2ccccc2)c(-c2ccccc2)n1,"inconclusive: 0.0657 µM [inhibitor, full curve, poor fit]",
CN(C)S(=O)(=O)n1cc(/C=C(\NC(=O)c2ccccc2)C(=O)N2CCOCC2)c2ccccc21,"inconclusive: 9.28 µM [inhibitor, single point]",
COc1ccc(S(=O)(=O)N2CCN(CC(O)COc3ccc(C#N)cc3)CC2)cc1OC (stereo not drawn),,inactive: 0%
Cc1ccc(C2=NN(C(=O)CNCCO)C(c3cccs3)C2)cc1 (stereo not drawn),"inconclusive: 18.5 µM [inhibitor, single point]",
O=C(NCCCn1ccnc1)c1ccc(N2CCCCCC2)c([N+](=O)[O-])c1,"inconclusive: 10.4 µM [inhibitor, single point]",
Cc1nc2c([nH]c3ccccc32)c(=O)n1N,"inconclusive: 13.1 µM [inhibitor, single point]",
CCOc1ccc(CC(=O)Nc2c(C(=O)Nc3ccccc3)oc3ccccc23)cc1OCC,active: 0.928 µM,
O=C(OCN1C(=O)c2ccccc2C1=O)c1cccc(S(=O)(=O)N2CCOCC2)c1,,inactive: -21.3%
O=C(NCC(c1ccco1)N1CCN(c2ccccc2)CC1)c1cccs1 (stereo not drawn),"inconclusive: 13.1 µM [inhibitor, partial curve, poor fit]",
CC(C)(C)C(=O)CC1(O)C(=O)N(Cc2ccc(Cl)cc2)c2ccccc21 (stereo not drawn),"inconclusive: 0.131 µM [inhibitor, full curve, poor fit]",
O=C(NCc1ccc(F)cc1)c1cnc2n(c1=O)CCS2,"inconclusive: 16.5 µM [inhibitor, partial curve, poor fit]",

Structure (SMILES),Potency,"activity change, negative = inhibition"
N#CCCn1cc(C=C(C#N)C#N)c(-c2ccc(Cl)cc2)n1,,inactive: -26.2%
COc1ccc(C(=O)O/N=C(\N)c2ccccc2)cc1OC,,inactive: 3.6%
CN1CCc2ccccc2CC1=O,"inconclusive: 10.4 µM [inhibitor, single point]",
O=C(NCCCN1CCOCC1)c1ccc2c(c1)N(Cc1ccc(Cl)cc1)C(=O)c1ccccc1S2=O (stereo not drawn),,inactive: 4.17%
Cc1ccsc1C(=O)NC1CCCCC1C (stereo not drawn),,inactive: 8.49%
O=C(COC(=O)c1cccc(Br)c1)NCCNC(=O)COC(=O)c1cccc(Br)c1,active: 0.415 µM,
O=C(Nc1ccccc1)C1=C[C@H](c2ccccc2)C[C@H](OCc2ccc(CO)cc2)O1,"inconclusive: 1.65 µM [inhibitor, full curve, poor fit]",
Clc1ccc(-c2nnc(CNC3CC3)o2)cc1,,inactive: 32.1%
CC(C)(C)c1cc(=O)n2c(nc3ccccc32)[nH]1,"inconclusive: 13.1 µM [inhibitor, single point]",
Cc1ccc(S(=O)(=O)NCCCCCC(=O)NCCc2ccccc2)cc1,,inactive: 19.4%
COc1cc2c3c(c1OC)C1(C=CC(=O)C=C1)CC3N(C(=O)c1ccccc1)CC2 (stereo not drawn),"inconclusive: 7.38 µM [inhibitor, single point]",
CC(C)CN1CCC(=O)N(CCSc2ccc(Br)cc2)CC1,"inconclusive: 0.0657 µM [inhibitor, full curve, poor fit]",
COc1ccc(NC(=O)c2nc[nH]c2C(=O)N[C@@H](CC(C)C)C(=O)OC(C)(C)C)cc1,"inconclusive: 18.5 µM [inhibitor, single point]",
CC(c1ccccc1)n1c(Br)nc2c1c(=O)[nH]c(=O)n2C (stereo not drawn),"inconclusive: 18.5 µM [inhibitor, single point]",
Cc1ccc(/C=N/NC(=O)NC23CC4CC(CC(C4)C2)C3)o1,"inconclusive: 14.7 µM [inhibitor, partial curve, poor fit]",
O=C(NN=C1CCN(Cc2ccccc2)CC1)c1ccccc1,"inconclusive: 18.5 µM [inhibitor, single point]",
CC(C)/C=C/C(=O)N1CCCC(N2CCN(c3ccccc3F)CC2)C1 (stereo not drawn),"inconclusive: 14.7 µM [inhibitor, single point]",
COc1ccccc1N1CCN(CC(O)COc2ccc3c(C)cc(=O)oc3c2)CC1 (stereo not drawn),"inconclusive: 18.5 µM [inhibitor, partial curve, poor fit]",
COC(=O)[C@@]1(Cc2ccc(OC)cc2)[C@@H]2[C@@H](CC(=O)[C@H]2CC(=O)C(=O)N(C)C)CN1C(=O)c1ccccc1,"inconclusive: 11.7 µM [inhibitor, single point]",
Cc1csc(SCC(=O)Nc2sc3c(c2C#N)CCC3)n1,,inactive: 31.8%
CN(CCn1ccnc1)Cc1cn(Cc2ccccc2)nc1-c1ccc2c(c1)OCO2,"inconclusive: 2.33 µM [inhibitor, partial curve, poor fit]",
O=C(CNCc1cccnc1)Nc1cc(C(F)(F)F)ccc1N1CCOCC1,"inconclusive: 9.28 µM [inhibitor, partial curve]",
Cc1cc(C=C2C(=O)NC(=O)NC2=O)c(C)n1-c1ccncc1,"inconclusive: 3.29 µM [inhibitor, full curve, poor fit]",
